Results from the supplement of paper PMC6411743.
± gives the standard deviation of the averaged measurements. Only a part is listed here, and it is no random draw.

Sequences of proteins named here, by UniProt entry; tags and fusion partners are left off. A change or cut given only in a name is not applied to a line headed by its entry.
UniProt Q9UBW8: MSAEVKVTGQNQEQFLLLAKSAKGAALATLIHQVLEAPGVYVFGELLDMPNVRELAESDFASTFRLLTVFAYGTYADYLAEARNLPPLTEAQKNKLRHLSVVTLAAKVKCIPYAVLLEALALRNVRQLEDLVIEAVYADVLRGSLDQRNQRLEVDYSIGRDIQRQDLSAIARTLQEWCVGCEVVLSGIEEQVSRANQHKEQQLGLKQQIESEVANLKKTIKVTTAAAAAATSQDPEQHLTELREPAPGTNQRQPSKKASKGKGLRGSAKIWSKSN
UniProt Q9UIA9: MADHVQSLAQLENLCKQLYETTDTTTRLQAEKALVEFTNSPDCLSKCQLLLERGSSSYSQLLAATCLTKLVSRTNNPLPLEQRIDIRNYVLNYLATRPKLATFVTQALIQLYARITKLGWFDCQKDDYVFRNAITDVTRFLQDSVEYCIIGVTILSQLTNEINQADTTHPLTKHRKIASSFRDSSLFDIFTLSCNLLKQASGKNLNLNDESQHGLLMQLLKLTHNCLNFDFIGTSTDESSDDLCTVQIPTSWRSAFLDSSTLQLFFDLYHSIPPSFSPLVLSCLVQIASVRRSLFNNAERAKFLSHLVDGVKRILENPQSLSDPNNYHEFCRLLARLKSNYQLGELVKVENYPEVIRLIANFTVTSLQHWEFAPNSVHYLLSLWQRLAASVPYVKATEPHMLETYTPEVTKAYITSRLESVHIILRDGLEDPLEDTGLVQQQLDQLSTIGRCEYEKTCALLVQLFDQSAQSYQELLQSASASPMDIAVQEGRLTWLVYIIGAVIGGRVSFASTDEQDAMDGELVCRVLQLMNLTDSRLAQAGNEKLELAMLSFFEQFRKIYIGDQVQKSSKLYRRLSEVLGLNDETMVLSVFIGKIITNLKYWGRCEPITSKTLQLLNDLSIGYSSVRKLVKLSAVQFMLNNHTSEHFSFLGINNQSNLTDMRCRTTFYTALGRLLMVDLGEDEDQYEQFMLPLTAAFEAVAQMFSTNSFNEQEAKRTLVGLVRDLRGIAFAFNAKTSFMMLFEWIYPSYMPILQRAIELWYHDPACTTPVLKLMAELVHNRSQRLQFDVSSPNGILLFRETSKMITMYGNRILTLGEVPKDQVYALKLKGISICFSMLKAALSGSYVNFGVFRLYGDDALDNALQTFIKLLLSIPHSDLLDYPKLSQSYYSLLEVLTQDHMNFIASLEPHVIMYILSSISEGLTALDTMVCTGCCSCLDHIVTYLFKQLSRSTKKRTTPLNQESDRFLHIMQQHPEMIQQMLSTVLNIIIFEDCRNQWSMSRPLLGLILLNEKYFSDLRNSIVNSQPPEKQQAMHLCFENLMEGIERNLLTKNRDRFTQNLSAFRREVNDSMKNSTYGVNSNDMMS
UniProt Q9UFN0: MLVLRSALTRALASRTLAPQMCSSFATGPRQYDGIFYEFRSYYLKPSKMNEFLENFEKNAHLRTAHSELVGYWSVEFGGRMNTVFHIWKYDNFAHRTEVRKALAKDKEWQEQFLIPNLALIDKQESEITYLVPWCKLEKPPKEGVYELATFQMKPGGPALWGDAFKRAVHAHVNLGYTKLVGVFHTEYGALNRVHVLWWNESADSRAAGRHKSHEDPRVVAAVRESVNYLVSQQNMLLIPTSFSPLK
UniProt Q9UJA5: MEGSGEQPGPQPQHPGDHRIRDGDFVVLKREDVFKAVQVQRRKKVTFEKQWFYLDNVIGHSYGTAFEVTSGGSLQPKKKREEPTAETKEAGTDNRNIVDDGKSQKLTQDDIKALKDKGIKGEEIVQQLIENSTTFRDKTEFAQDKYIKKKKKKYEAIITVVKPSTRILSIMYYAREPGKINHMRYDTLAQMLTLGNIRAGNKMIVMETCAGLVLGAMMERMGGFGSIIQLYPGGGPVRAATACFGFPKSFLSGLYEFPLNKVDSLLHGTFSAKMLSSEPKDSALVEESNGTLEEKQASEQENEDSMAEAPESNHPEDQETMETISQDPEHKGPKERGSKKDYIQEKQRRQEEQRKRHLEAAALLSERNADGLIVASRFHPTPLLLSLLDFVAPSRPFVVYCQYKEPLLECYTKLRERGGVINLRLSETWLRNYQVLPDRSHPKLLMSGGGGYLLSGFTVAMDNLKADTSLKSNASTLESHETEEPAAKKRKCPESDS
UniProt Q9Y2T7, whole entry: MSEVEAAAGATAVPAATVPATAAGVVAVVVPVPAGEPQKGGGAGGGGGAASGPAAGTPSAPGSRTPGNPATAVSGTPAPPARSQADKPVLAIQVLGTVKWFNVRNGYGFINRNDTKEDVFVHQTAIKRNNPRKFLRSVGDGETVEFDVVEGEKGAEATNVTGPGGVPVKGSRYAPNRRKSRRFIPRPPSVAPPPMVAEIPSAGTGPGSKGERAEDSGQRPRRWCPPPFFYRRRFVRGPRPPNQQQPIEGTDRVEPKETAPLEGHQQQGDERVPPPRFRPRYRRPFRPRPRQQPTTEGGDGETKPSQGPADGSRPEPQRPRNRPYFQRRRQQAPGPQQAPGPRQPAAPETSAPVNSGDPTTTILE
UniProt Q9UNQ2: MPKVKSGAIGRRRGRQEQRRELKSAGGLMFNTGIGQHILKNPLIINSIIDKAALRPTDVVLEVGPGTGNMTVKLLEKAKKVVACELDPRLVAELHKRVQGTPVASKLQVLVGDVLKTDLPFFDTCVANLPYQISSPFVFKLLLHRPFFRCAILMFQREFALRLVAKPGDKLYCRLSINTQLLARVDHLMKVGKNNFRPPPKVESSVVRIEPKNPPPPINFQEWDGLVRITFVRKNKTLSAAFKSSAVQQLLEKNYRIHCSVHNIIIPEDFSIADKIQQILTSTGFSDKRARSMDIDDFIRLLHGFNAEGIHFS
UniProt Q9UIB8: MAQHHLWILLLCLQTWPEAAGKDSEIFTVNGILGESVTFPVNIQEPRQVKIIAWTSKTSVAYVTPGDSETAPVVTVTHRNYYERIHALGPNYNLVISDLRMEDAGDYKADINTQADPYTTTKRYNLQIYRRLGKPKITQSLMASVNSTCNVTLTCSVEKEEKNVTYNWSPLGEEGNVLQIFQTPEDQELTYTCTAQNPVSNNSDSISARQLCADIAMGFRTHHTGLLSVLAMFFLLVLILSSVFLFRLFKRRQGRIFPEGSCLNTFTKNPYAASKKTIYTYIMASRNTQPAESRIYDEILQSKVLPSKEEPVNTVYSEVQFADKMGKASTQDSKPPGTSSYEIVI
UniProt Q9UGJ1, whole entry: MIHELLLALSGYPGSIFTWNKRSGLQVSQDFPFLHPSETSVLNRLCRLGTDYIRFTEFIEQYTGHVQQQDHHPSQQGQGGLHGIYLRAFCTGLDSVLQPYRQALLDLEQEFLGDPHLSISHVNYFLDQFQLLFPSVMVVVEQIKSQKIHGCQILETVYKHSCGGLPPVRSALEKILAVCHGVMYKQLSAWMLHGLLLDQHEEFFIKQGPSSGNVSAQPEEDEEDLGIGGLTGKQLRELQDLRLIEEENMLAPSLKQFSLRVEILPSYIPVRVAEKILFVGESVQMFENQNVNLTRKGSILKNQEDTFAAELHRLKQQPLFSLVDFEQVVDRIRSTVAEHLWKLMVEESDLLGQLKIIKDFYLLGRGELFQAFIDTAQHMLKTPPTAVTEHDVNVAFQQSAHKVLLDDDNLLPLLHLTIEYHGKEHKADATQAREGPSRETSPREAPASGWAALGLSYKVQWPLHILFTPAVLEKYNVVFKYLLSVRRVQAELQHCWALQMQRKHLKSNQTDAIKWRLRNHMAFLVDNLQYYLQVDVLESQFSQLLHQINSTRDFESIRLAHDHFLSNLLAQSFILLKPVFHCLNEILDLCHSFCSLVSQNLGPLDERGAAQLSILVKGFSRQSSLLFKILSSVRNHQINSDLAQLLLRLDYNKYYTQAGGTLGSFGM
UniProt Q9UKV5, whole entry: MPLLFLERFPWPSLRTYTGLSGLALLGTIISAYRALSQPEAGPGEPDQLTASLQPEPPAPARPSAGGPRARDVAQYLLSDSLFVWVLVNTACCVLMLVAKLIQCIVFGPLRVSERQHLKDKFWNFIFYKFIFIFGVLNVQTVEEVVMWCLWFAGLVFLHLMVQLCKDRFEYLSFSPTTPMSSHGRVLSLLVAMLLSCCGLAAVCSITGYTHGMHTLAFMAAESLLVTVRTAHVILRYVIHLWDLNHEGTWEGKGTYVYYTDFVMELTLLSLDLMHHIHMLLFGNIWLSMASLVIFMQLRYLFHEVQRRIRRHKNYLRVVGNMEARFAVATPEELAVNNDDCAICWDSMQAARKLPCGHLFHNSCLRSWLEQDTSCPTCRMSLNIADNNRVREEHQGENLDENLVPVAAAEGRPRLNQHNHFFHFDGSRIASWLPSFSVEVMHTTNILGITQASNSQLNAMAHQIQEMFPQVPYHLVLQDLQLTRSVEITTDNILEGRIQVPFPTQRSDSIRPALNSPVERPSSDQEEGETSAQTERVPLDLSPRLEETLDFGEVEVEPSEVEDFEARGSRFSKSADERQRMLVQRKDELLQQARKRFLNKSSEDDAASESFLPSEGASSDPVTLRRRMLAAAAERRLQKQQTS
UniProt Q9UHV9, whole entry: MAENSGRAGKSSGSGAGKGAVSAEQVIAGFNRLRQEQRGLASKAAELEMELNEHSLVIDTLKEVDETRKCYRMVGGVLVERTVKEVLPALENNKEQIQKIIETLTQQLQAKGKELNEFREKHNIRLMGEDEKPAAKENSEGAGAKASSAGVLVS
UniProt Q9UKT4: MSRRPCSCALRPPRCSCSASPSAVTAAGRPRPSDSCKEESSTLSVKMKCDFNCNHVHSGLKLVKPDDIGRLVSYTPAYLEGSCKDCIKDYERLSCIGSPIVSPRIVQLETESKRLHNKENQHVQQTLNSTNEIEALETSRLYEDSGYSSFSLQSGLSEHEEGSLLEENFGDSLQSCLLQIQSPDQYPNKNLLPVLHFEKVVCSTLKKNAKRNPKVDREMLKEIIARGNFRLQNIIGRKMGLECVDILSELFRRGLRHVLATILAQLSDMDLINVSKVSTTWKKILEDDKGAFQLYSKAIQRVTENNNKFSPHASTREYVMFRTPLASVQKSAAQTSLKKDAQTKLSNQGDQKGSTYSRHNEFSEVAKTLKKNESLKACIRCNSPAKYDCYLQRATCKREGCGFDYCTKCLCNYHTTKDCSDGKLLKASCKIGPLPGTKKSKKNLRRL
UniProt Q9Y237, whole entry: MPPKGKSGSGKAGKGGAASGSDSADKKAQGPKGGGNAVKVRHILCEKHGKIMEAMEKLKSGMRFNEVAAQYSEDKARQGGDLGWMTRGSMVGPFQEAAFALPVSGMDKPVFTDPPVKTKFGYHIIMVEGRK
UniProt Q9ULM3: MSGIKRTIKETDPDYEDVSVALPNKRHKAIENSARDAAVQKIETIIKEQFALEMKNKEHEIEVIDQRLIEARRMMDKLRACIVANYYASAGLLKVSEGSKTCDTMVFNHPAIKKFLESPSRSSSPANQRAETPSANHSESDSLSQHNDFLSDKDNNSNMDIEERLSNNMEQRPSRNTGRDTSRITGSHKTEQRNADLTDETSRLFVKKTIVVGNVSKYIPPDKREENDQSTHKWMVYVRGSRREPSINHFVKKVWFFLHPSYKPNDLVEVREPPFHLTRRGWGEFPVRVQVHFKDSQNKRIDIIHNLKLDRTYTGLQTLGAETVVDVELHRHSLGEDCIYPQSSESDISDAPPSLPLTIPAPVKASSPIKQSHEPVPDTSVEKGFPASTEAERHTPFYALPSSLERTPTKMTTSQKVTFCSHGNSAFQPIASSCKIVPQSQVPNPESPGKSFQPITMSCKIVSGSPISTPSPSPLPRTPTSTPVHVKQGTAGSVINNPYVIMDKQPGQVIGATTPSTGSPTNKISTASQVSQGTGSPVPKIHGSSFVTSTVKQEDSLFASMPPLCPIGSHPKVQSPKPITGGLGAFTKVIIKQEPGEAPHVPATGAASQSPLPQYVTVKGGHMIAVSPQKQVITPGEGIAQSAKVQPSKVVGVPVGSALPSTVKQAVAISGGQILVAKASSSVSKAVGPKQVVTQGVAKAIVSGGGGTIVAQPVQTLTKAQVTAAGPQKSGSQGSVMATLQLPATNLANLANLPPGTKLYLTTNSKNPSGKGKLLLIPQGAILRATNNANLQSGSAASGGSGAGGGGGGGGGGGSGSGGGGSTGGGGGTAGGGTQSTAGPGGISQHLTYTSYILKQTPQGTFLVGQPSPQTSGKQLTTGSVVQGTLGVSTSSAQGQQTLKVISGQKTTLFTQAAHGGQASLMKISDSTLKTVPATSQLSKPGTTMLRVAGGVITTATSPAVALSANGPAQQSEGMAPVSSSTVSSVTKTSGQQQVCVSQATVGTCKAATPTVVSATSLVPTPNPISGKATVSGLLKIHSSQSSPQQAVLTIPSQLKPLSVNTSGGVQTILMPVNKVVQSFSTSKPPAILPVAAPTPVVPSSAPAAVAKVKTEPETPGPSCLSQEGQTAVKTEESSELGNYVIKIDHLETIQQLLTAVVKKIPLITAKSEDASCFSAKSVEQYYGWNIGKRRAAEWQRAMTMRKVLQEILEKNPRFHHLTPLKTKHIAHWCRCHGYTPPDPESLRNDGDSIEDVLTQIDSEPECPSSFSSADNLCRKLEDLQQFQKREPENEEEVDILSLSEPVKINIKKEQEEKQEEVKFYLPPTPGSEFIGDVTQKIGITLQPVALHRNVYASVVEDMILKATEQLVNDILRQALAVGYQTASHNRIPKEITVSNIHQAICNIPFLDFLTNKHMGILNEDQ

Compound: Nc1ncnc2c1ncn2[C@@H]1O[C@H](COP(=O)(O)OP(=O)(O)NP(=O)(O)O)[C@@H](O)[C@H]1O [adenylyl imidodiphosphate]
Assay: NP40-soluble protein abundance relative to vehicle (solubility fold change) (ratio); higher = more soluble protein in presence of AMP-PNP
Method in brief: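 Crude Jurkat lysate, prepared by Dounce homogenisation, was exposed to eight concentrations from 0.1 to 10 mM for 10 min at room temperature and then 3 min at 37 °C. Solubilisation used 0.8% NP40 with benzonase for 60 min at 4 °C, followed by ultracentrifugation and TMT labelling of the supernatant for LC-MS/MS. After vsn normalisation of intensities, each value is the fold change against the detergent-processed vehicle within each replicate, across three independent experiments.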

Target	NP40-soluble protein abundance (concentration: 1mM)	NP40-soluble protein abundance (concentration: 2mM)	NP40-soluble protein abundance (concentration: 4mM)	NP40-soluble protein abundance (concentration: 6mM)	NP40-soluble protein abundance (concentration: 8mM)	NP40-soluble protein abundance (concentration: 10mM)
UniProt Q9UGU0 and related entries	1.02 ± 0.071	1.02 ± 0.059	1.07 ± 0.074	1.14 ± 0.098	1.14 ± 0.082	1.22 ± 0.097
SRRM2 (UniProt Q9UQ35)	1.08 ± 0.035	1.13 ± 0.074	1.1 ± 0.021	1.05 ± 0.08	1.03 ± 0.042	1.09 ± 0.044
COPS7A (UniProt Q9UBW8)	0.965 ± 0.024	0.988 ± 0.011	0.961 ± 0.03	0.941 ± 0.0075	0.963 ± 0.019	0.922 ± 0.0095
SLC39A10 (UniProt Q9ULF5)	0.998 ± 0.021	1.07 ± 0.045	1.01 ± 0.026	1 ± 0.029	0.985 ± 0.04	0.994 ± 0.036
LNPEP (UniProt Q9UIQ6)	1.02 ± 0.021	1.05 ± 0.12	1.02 ± 0.057	1.06 ± 0.065	1.07 ± 0.044	1.08 ± 0.079
XPO7 (UniProt Q9UIA9)	0.973 ± 0.036	0.932 ± 0.035	0.96 ± 0.019	0.958 ± 0.037	0.966 ± 0.015	0.939 ± 0.03
NIPSNAP3A (UniProt Q9UFN0)	0.942 ± 0.058	0.879 ± 0.079	0.965 ± 0.098	0.961 ± 0.031	0.991 ± 0.05	0.948 ± 0.096
DCTN4 (UniProt Q9UJW0)	0.965 ± 0.017	0.946 ± 0.045	0.945 ± 0.049	0.963 ± 0.053	0.942 ± 0.049	0.954 ± 0.11
RAB21 (UniProt Q9UL25)	0.996 ± 0.032	0.985 ± 0.028	1.01 ± 0.025	1.08 ± 0.11	1.08 ± 0.073	1.11 ± 0.075
DICER1 (UniProt Q9UPY3)	1 ± 0.03	0.966 ± 0.073	1 ± 0.039	0.963 ± 0.041	0.957 ± 0.03	0.955 ± 0.033
UniProt Q9UPZ3 and related entries	0.976 ± 0.036	0.994 ± 0.038	0.958 ± 0.012	0.9965 ± 0.0026	0.983 ± 0.028	0.976 ± 0.066
MTMR6 (UniProt Q9Y217)	1 ± 0.013	0.985 ± 0.033	0.999 ± 0.048	0.964 ± 0.042	0.934 ± 0.03	0.942 ± 0.021
TRMT6 (UniProt Q9UJA5)	1.013 ± 0.0062	1.02 ± 0.047	1.02 ± 0.023	1.03 ± 0.012	1.03 ± 0.017	1.047 ± 0.0057
YBX2 (UniProt Q9Y2T7)	1.02 ± 0.029	1.06 ± 0.013	1.02 ± 0.018	1.01 ± 0.029	1.01 ± 0.036	1.038 ± 0.0094
MAGED2 (UniProt Q9UNF1)	1.02 ± 0.032	1.04 ± 0.051	0.989 ± 0.011	0.952 ± 0.031	0.938 ± 0.015	0.936 ± 0.013
CDC23 (UniProt Q9UJX2)	0.996 ± 0.044	0.988 ± 0.052	1.03 ± 0.069	1.02 ± 0.016	1.04 ± 0.096	1.04 ± 0.12
UniProt Q9Y2Q0 and related entries	0.994 ± 0.049	0.985 ± 0.026	0.9739 ± 0.0091	0.981 ± 0.014	0.963 ± 0.047	0.987 ± 0.041
UTP11 (UniProt Q9Y3A2)	1.02 ± 0.026	1.04 ± 0.037	1.03 ± 0.025	1.05 ± 0.026	1.05 ± 0.018	1.08 ± 0.018
UniProt Q9ULH7-4|Q9ULH7-5|Q9ULH7	1.02 ± 0.026	1.03 ± 0.022	1.01 ± 0.035	0.991 ± 0.022	0.962 ± 0.026	0.994 ± 0.041
UniProt Q9UL15 and related entries	1.03 ± 0.035	1.03 ± 0.039	1.03 ± 0.013	1.02 ± 0.048	1.02 ± 0.03	1 ± 0.053

Reprinted from the listing for reference:
Target	NP40-soluble protein abundance (concentration: 1mM)	NP40-soluble protein abundance (concentration: 2mM)	NP40-soluble protein abundance (concentration: 4mM)	NP40-soluble protein abundance (concentration: 6mM)	NP40-soluble protein abundance (concentration: 8mM)	NP40-soluble protein abundance (concentration: 10mM)
SRRM2 (UniProt Q9UQ35)	1.08 ± 0.035	1.13 ± 0.074	1.1 ± 0.021	1.05 ± 0.08	1.03 ± 0.042	1.09 ± 0.044
COPS7A (UniProt Q9UBW8)	0.965 ± 0.024	0.988 ± 0.011	0.961 ± 0.03	0.941 ± 0.0075	0.963 ± 0.019	0.922 ± 0.0095
SLC39A10 (UniProt Q9ULF5)	0.998 ± 0.021	1.07 ± 0.045	1.01 ± 0.026	1 ± 0.029	0.985 ± 0.04	0.994 ± 0.036
LNPEP (UniProt Q9UIQ6)	1.02 ± 0.021	1.05 ± 0.12	1.02 ± 0.057	1.06 ± 0.065	1.07 ± 0.044	1.08 ± 0.079
XPO7 (UniProt Q9UIA9)	0.973 ± 0.036	0.932 ± 0.035	0.96 ± 0.019	0.958 ± 0.037	0.966 ± 0.015	0.939 ± 0.03
NIPSNAP3A (UniProt Q9UFN0)	0.942 ± 0.058	0.879 ± 0.079	0.965 ± 0.098	0.961 ± 0.031	0.991 ± 0.05	0.948 ± 0.096
DCTN4 (UniProt Q9UJW0)	0.965 ± 0.017	0.946 ± 0.045	0.945 ± 0.049	0.963 ± 0.053	0.942 ± 0.049	0.954 ± 0.11
RAB21 (UniProt Q9UL25)	0.996 ± 0.032	0.985 ± 0.028	1.01 ± 0.025	1.08 ± 0.11	1.08 ± 0.073	1.11 ± 0.075
DICER1 (UniProt Q9UPY3)	1 ± 0.03	0.966 ± 0.073	1 ± 0.039	0.963 ± 0.041	0.957 ± 0.03	0.955 ± 0.033
UniProt Q9UPZ3 and related entries	0.976 ± 0.036	0.994 ± 0.038	0.958 ± 0.012	0.9965 ± 0.0026	0.983 ± 0.028	0.976 ± 0.066
MTMR6 (UniProt Q9Y217)	1 ± 0.013	0.985 ± 0.033	0.999 ± 0.048	0.964 ± 0.042	0.934 ± 0.03	0.942 ± 0.021
TRMT6 (UniProt Q9UJA5)	1.013 ± 0.0062	1.02 ± 0.047	1.02 ± 0.023	1.03 ± 0.012	1.03 ± 0.017	1.047 ± 0.0057
YBX2 (UniProt Q9Y2T7)	1.02 ± 0.029	1.06 ± 0.013	1.02 ± 0.018	1.01 ± 0.029	1.01 ± 0.036	1.038 ± 0.0094
MAGED2 (UniProt Q9UNF1)	1.02 ± 0.032	1.04 ± 0.051	0.989 ± 0.011	0.952 ± 0.031	0.938 ± 0.015	0.936 ± 0.013

Later entries.

Target	NP40-soluble protein abundance (concentration: 1mM)	NP40-soluble protein abundance (concentration: 2mM)	NP40-soluble protein abundance (concentration: 4mM)	NP40-soluble protein abundance (concentration: 6mM)	NP40-soluble protein abundance (concentration: 8mM)	NP40-soluble protein abundance (concentration: 10mM)
UniProt Q9ULK4 and related entries	0.978 ± 0.028	0.92 ± 0.072	0.954 ± 0.026	0.965 ± 0.028	0.99 ± 0.025	0.955 ± 0.053
DUSP12 (UniProt Q9UNI6)	0.9745 ± 0.0053	0.979 ± 0.014	0.971 ± 0.01	1 ± 0.067	0.98 ± 0.069	0.983 ± 0.059
UniProt Q9UI10 and related entries	1.03 ± 0.026	1.04 ± 0.029	1.04 ± 0.04	0.987 ± 0.039	0.9691 ± 0.0095	0.9702 ± 0.0062
EPDR1 (UniProt Q9UM22)	1.03 ± 0.015	1.03 ± 0.06	1.06 ± 0.046	1.09 ± 0.06	1.09 ± 0.016	1.102 ± 0.01
UniProt Q9UBT2 and related entries	1.02 ± 0.032	0.989 ± 0.03	0.99 ± 0.029	1.02 ± 0.05	1.04 ± 0.02	1.02 ± 0.061
FKBPL (UniProt Q9UIM3)	1 ± 0.024	1.02 ± 0.019	0.982 ± 0.034	0.97 ± 0.038	0.989 ± 0.034	1.01 ± 0.038
UniProt Q9UNQ2	0.997 ± 0.019	0.968 ± 0.059	1.05 ± 0.06	1.07 ± 0.029	1.15 ± 0.044	1.16 ± 0.058
UniProt Q9UIB8 and related entries	0.9756 ± 0.0055	0.982 ± 0.028	0.97 ± 0.024	0.9737 ± 0.0071	0.9696 ± 0.0036	0.978 ± 0.023
TRAF3IP3 (UniProt Q9Y228)	0.995 ± 0.028	1.05 ± 0.042	1.01 ± 0.043	0.956 ± 0.031	0.977 ± 0.074	0.969 ± 0.046
UniProt Q9UGJ1 and related entries	1.01 ± 0.037	1.01 ± 0.024	1.04 ± 0.05	1 ± 0.028	1 ± 0.091	1.03 ± 0.08
DDX20 (UniProt Q9UHI6)	0.994 ± 0.095	1 ± 0.061	0.974 ± 0.12	0.977 ± 0.12	0.945 ± 0.097	0.99 ± 0.13
UniProt Q9UJZ1 and related entries	0.971 ± 0.063	0.982 ± 0.056	0.902 ± 0.042	0.951 ± 0.09	0.889 ± 0.072	0.939 ± 0.11
PACSIN3 (UniProt Q9UKS6)	1.02 ± 0.066	1.08 ± 0.059	1.06 ± 0.041	1.1 ± 0.034	1.09 ± 0.04	1.08 ± 0.023
TBK1 (UniProt Q9UHD2)	0.994 ± 0.024	0.941 ± 0.051	0.99 ± 0.032	0.953 ± 0.038	0.959 ± 0.027	0.938 ± 0.018
POLK (UniProt Q9UBT6)	1.02 ± 0.042	1.04 ± 0.042	1.01 ± 0.02	1.01 ± 0.013	0.9996 ± 0.0059	0.995 ± 0.015
CNOT7 (UniProt Q9UIV1)	0.99 ± 0.015	0.958 ± 0.031	0.995 ± 0.031	1 ± 0.039	1.03 ± 0.045	0.995 ± 0.052
AMFR (UniProt Q9UKV5)	0.983 ± 0.011	1.03 ± 0.056	1 ± 0.033	0.978 ± 0.014	0.964 ± 0.018	0.994 ± 0.011
PEF1 (UniProt Q9UBV8)	0.951 ± 0.015	0.97 ± 0.028	0.982 ± 0.011	1.01 ± 0.015	0.991 ± 0.011	0.997 ± 0.037
CFDP1 (UniProt Q9UEE9)	1.084 ± 0.0092	1.14 ± 0.11	1.04 ± 0.034	1.04 ± 0.045	0.96 ± 0.013	1.04 ± 0.084
UniProt Q9UII2	1.04 ± 0.078	1.11 ± 0.039	0.957 ± 0.067	0.921 ± 0.09	0.835 ± 0.013	0.901 ± 0.1

Target	NP40-soluble protein abundance (concentration: 1mM)	NP40-soluble protein abundance (concentration: 2mM)	NP40-soluble protein abundance (concentration: 4mM)	NP40-soluble protein abundance (concentration: 6mM)	NP40-soluble protein abundance (concentration: 8mM)	NP40-soluble protein abundance (concentration: 10mM)
UniProt Q9ULX6 and related entries	0.928 ± 0.06	0.945 ± 0.057	0.912 ± 0.032	0.939 ± 0.087	0.893 ± 0.082	0.897 ± 0.054
PFDN2 (UniProt Q9UHV9)	1.05 ± 0.084	1.11 ± 0.11	0.986 ± 0.062	0.928 ± 0.1	0.85 ± 0.016	0.941 ± 0.083
UniProt Q9UJU6 and related entries	1.017 ± 0.0077	1.04 ± 0.029	1.005 ± 0.0041	1.006 ± 0.0064	0.995 ± 0.043	0.983 ± 0.047
UniProt Q9UKW4 and related entries	0.985 ± 0.01	0.955 ± 0.086	0.974 ± 0.023	0.958 ± 0.026	0.981 ± 0.023	0.964 ± 0.034
NENF (UniProt Q9UMX5)	0.971 ± 0.029	1.05 ± 0.06	0.96 ± 0.048	0.945 ± 0.031	0.911 ± 0.017	0.906 ± 0.038
DIS3 (UniProt Q9Y2L1)	0.987 ± 0.034	0.923 ± 0.071	0.97 ± 0.015	0.9496 ± 0.0077	0.966 ± 0.022	0.91 ± 0.016
UniProt Q9ULI0 and related entries	1.057 ± 0.0048	1.09 ± 0.013	1.08 ± 0.036	1.175 ± 0.0053	1.161 ± 0.0039	1.23 ± 0.015
MRPS23 (UniProt Q9Y3D9)	0.922 ± 0.039	0.922 ± 0.072	0.898 ± 0.1	0.939 ± 0.045	0.926 ± 0.089	0.892 ± 0.14
NOP58 (UniProt Q9Y2X3)	1.11 ± 0.021	1.17 ± 0.013	1.17 ± 0.014	1.24 ± 0.054	1.32 ± 0.033	1.46 ± 0.057
ZC3H4 (UniProt Q9UPT8)	1.04 ± 0.015	1.1 ± 0.096	1.01 ± 0.032	0.997 ± 0.035	0.971 ± 0.02	0.982 ± 0.016
SEL1L (UniProt Q9UBV2)	1 ± 0.017	1 ± 0.054	0.984 ± 0.013	1.03 ± 0.035	0.993 ± 0.026	0.996 ± 0.037
UniProt Q9ULU4-11|Q9ULU4-19|Q9ULU4-7|A0A087WYS3|Q9ULU4-13|Q9ULU4-22|Q9ULU4-8|Q9ULU4-9	1.03 ± 0.042	1.07 ± 0.05	1.05 ± 0.021	1.05 ± 0.062	1.05 ± 0.024	1.12 ± 0.021
WARS2 (UniProt Q9UGM6)	1.014 ± 0.0083	1.02 ± 0.03	1.06 ± 0.013	1.1 ± 0.036	1.06 ± 0.038	1.07 ± 0.025
VPS28 (UniProt Q9UK41)	0.992 ± 0.064	1.02 ± 0.046	0.973 ± 0.032	0.928 ± 0.014	0.926 ± 0.017	0.853 ± 0.093
NOL7 (UniProt Q9UMY1)	1.01 ± 0.025	1.04 ± 0.015	1.03 ± 0.025	1.05 ± 0.026	1.04 ± 0.024	1.05 ± 0.019
UniProt Q9UBS9-2|Q9UBS9	1 ± 0.046	0.99 ± 0.022	1 ± 0.033	1 ± 0.054	0.987 ± 0.039	1.02 ± 0.027
UniProt Q9UKT4 and related entries	0.995 ± 0.029	1.03 ± 0.031	1.03 ± 0.072	1 ± 0.061	1.02 ± 0.092	1.02 ± 0.11
RUVBL1 (UniProt Q9Y265)	1.02 ± 0.04	1 ± 0.078	1.01 ± 0.044	1.01 ± 0.081	1.02 ± 0.083	1.04 ± 0.12
UniProt Q9Y237 and related entries	1.02 ± 0.019	1.1 ± 0.12	1.04 ± 0.033	1.08 ± 0.02	1.075 ± 0.01	1.1 ± 0.038
YEATS2 (UniProt Q9ULM3)	0.999 ± 0.029	0.984 ± 0.028	1.01 ± 0.06	0.992 ± 0.036	0.987 ± 0.018	0.999 ± 0.021
